Source: the supplement of paper PMC10331698
± gives the standard deviation of the averaged measurements. Most entries show no effect beyond the scatter of the controls.

Experiments:
Assay in all cases: level (log10 ratio to DMSO vehicle control); higher = higher biomarker level / cell amount than vehicle control
[1] = compound: O=C(O)C(F)(F)C(F)(F)C(F)(F)C(F)(F)C(F)(F)C(F)(F)C(F)(F)C(F)(F)C(F)(F)C(F)(F)C(F)(F)C(F)(F)C(F)(F)F [Perfluorotetradecanoic acid]; conditions: in DMSO
Protocol: (§1)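 BioMAP Diversity Plus panel of 12 human primary cell co-culture systems (3C, 4H, LPS, SAg, BT, BF4T, BE3C, CASM3C, HDF3CGF, KF3CT, MyoF, Mphg). Compounds were added 1 h before stimulation and left for 24 h (MyoF 48 h; BT 72 h for soluble read-outs or 6 d for IgG). Biomarkers were read by ELISA, cytotoxicity by SRB, PBMC viability and proliferation by Alamar Blue. Each well value was divided by the mean of 8 DMSO control wells on the same plate and log10 transformed; duplicate blinded samples were tested at 4 concentrations.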

[2] = compound: FC(F)(F)C(F)(C(F)(F)F)C(F)(F)C(F)(F)CC1CO1 [3-(Perfluoro-3-methylbutyl)-1,2-propenoxide]; conditions: in DMSO
Protocol: as §1

[3] = compound: O=C(Cl)C(F)(F)C(F)(F)C(F)(F)C(=O)Cl [Hexafluoroglutaryl chloride]; conditions: 2200 nM; in DMSO
Protocol: as §1

[4] = compound: O=S(=O)(O)C(F)(F)C(F)(F)C(F)(F)C(F)(F)C(F)(F)C(F)(F)F [Perfluorohexanesulfonic acid]; conditions: 2200 nM; in DMSO
Protocol: as §1

[5] = compound: OCCCC(F)(F)C(F)(F)C(F)(F)C(F)(F)C(F)(F)C(F)(F)C(F)(F)F [7:3 Fluorotelomer alcohol]; conditions: 2200 nM; in DMSO
Protocol: as §1

[6] = compound: C=CC(=O)OCCC(F)(F)C(F)(F)C(F)(F)C(F)(F)F [2-(Perfluorobutyl)ethyl acrylate]; conditions: 2200 nM; in DMSO
Protocol: as §1

[7] = compound: O=S(=O)(O)CCC(F)(F)C(F)(F)C(F)(F)C(F)(F)F [4:2 Fluorotelomer sulfonic acid]; conditions: 2200 nM; in DMSO
Protocol: as §1

[8] = compound: O=C(O)C=C(C(F)(F)F)C(F)(F)F [3,3-Bis(trifluoromethyl)-2-propenoic acid]; conditions: in DMSO
Protocol: as §1

[9] = compound: OCC(F)(F)C(F)(F)C(F)(F)CO [Hexafluoroamylene glycol]; conditions: 2200 nM; in DMSO
Protocol: as §1

[10] = compound: FC(F)(F)C(F)(F)C(F)(F)C(F)(F)C(F)(F)C(F)(F)I [Perfluoro-1-iodohexane]; conditions: in DMSO
Protocol: as §1

[11] = compound: C=CC(=O)OCC(F)(F)C(F)(F)C(F)(F)COC(=O)C=C [1H,1H,5H,5H-Perfluoro-1,5-pentanediol diacrylate]; conditions: 2200 nM; in DMSO
Protocol: as §1

[12] = compound: FC(F)(I)C(F)(F)C(F)(F)C(F)(F)C(F)(F)C(F)(F)I [1,6-Diiodoperfluorohexane]; conditions: 2200 nM; in DMSO
Protocol: as §1

[13] = compound: C=CC(=O)OCCC(F)(F)C(F)(F)C(F)(F)C(F)(F)C(F)(F)C(F)(F)C(F)(F)C(F)(F)F [8:2 Fluorotelomer acrylate]; conditions: 2200 nM; in DMSO
Protocol: as §1

Row | Test System | level (log10) ([1]; 740 nM) | level (log10) ([1]; 2200 nM) | level (log10) ([2]; 740 nM) | level (log10) ([2]; 2200 nM) | level (log10) [3] | level (log10) [4] | level (log10) [5] | level (log10) [6] | level (log10) [7] | level (log10) ([8]; 2200 nM) | level (log10) ([8]; 6700 nM) | level (log10) ([8]; 20000 nM) | level (log10) ([8]; 60000 nM) | level (log10) [9] | level (log10) ([10]; 2200 nM) | level (log10) ([10]; 6700 nM) | level (log10) ([10]; 20000 nM) | level (log10) ([10]; 60000 nM) | level (log10) [11] | level (log10) [12] | level (log10) [13]
1 | CASM3C:CXCL8/IL-8 | 0.0135 ± 0.018 | 0.008 ± 0.018 | 0.009 ± 0.02 | -0.0015 ± 0.016 | 0.028 ± 0.0057 | -0.0005 ± 0.0078 | 0.0015 ± 0.028 | 0.004 ± 0.0085 | 0.0105 ± 0.016 | 0.0025 ± 0.0035 | -0.0025 ± 0.0021 | -0.0045 ± 0.005 | 0.0125 ± 0.022 | 0.0235 ± 0.03 | 0.0085 ± 0.012 | 0.0055 ± 0.0092 | -0.0005 ± 0.0078 | 0.011 ± 0.021 | 0.002 ± 0.018 | -0.0005 ± 0.028 | -0.0065 ± 0.033
2 | HDF3CGF:M-CSF | 0.003 ± 0.011 | 0.051 ± 0.03 | 0.022 ± 0.076 | -0.0255 ± 0.05 | 0.0085 ± 0.03 | 0.0085 ± 0.015 | 0.0225 ± 0.032 | 0.0045 ± 0.0035 | -0.0395 ± 0.053 | -0.003 ± 0.02 | -0.0595 ± 0.0078 | -0.072 ± 0.042 | -0.051 ± 0.014 | -0.0395 ± 0.04 | 0.033 ± 0.013 | 0.0155 ± 0.019 | 0.024 ± 0.0028 | -0.021 ± 0.034 | -0.278 ± 0.089 | 0.0005 ± 0.0021 | -0.0075 ± 0.012
3 | HDF3CGF:CXCL9/MIG | 0.027 ± 0.02 | 0.028 ± 0.016 | 0.007 ± 0.037 | 0.008 ± 0.0042 | 0.002 ± 0.011 | 0.0055 ± 0.026 | -0.002 ± 0.041 | 0.0045 ± 0.011 | -0.0095 ± 0.019 | -0.0115 ± 0.0078 | -0.006 ± 0.0028 | -0.0075 ± 0.013 | -0.0175 ± 0.015 | 0.0015 ± 0.018 | -0.01 ± 0.014 | 0 ± 0.0028 | -0.021 ± 0.0057 | -0.0325 ± 0.018 | -0.663 ± 0.1 | -0.0005 ± 0.011 | -0.0035 ± 0.00071
4 | CASM3C:LDLR | -0.0225 ± 0.0078 | -0.0165 ± 0.0021 | 0.019 ± 0.044 | -0.013 ± 0.023 | -0.008 ± 0.062 | 0.004 ± 0.03 | 0.002 ± 0.011 | -0.0015 ± 0.028 | -0.0015 ± 0.012 | -0.0035 ± 0.012 | -0.008 ± 0.011 | -0.0175 ± 0.0064 | -0.022 ± 0.016 | 0.0105 ± 0.016 | 0.0125 ± 0.025 | -0.008 ± 0.0057 | 0.0155 ± 0.016 | 0.005 ± 0.028 | 0.0135 ± 0.029 | 0.0385 ± 0.04 | -0.009 ± 0.03
5 | BF4T:SRB | 0.009 ± 0.021 | 0.0065 ± 0.0021 | -0.004 | -0.002 ± 0.0028 | -0.0095 ± 0.019 | -0.0025 ± 0.011 | 0.012 ± 0.0071 | -0.003 ± 0.0071 | 0.0115 ± 0.016 | -0.0045 ± 0.00071 | 0.0015 ± 0.005 | -0.006 ± 0.011 | 0.0045 ± 0.0092 | 0.0195 ± 0.037 | 0.007 ± 0.021 | -0.006 ± 0.0085 | -0.011 ± 0.011 | -0.0135 ± 0.016 | 0.001 ± 0.0028 | -0.0035 ± 0.0021 | -0.0025 ± 0.016
6 | 4H:CD87/uPAR | 0.016 ± 0.02 | 0.003 ± 0.04 | 0.0075 ± 0.0078 | 0.014 ± 0.016 | 0.006 ± 0.024 | -0.023 ± 0.014 | 0.018 ± 0.031 | 0.0045 ± 0.052 | 0.015 ± 0.017 | -0.039 ± 0.027 | -0.053 ± 0.038 | -0.0455 ± 0.037 | -0.025 ± 0.062 | 0.003 ± 0.014 | 0.004 ± 0.013 | -0.0035 ± 0.053 | 0.017 ± 0.062 | 0.036 ± 0.12 | -0.043 ± 0.14 | -0.005 ± 0.0085 | -0.064 ± 0.02
7 | lMphg:CXCL8/IL-8 | 0.008 ± 0.0042 | -0.036 ± 0.0085 | 0.0445 ± 0.033 | -0.001 ± 0.0014 | 0.0475 ± 0.0064 | 0.0345 ± 0.015 | 0.007 ± 0.011 | 0.0055 ± 0.022 | 0.017 ± 0.0085 | 0.0805 ± 0.0064 | 0.081 ± 0.016 | 0.123 ± 0.014 | 0.201 ± 0.047 | -0.007 ± 0.014 | 0.0015 ± 0.012 | -0.0075 ± 0.039 | 0.0325 ± 0.016 | 0.0585 ± 0.064 | 0.015 ± 0.052 | 0.017 ± 0.017 | 0.0125 ± 0.083
8 | BE3C:MMP-1 | 0.0255 ± 0.012 | 0.0385 ± 0.0035 | 0.0125 ± 0.016 | 0.0275 ± 0.019 | 0.0065 ± 0.018 | 0.016 ± 0.016 | 0.003 ± 0.0057 | 0.013 ± 0.054 | -0.001 ± 0.0057 | -0.0035 ± 0.056 | -0.066 ± 0.0099 | -0.0425 ± 0.005 | 0.0305 ± 0.073 | -0.003 ± 0.0085 | -0.0075 ± 0.037 | -0.003 ± 0.0085 | -0.0065 ± 0.011 | 0.043 ± 0.016 | 0.009 ± 0.018 | 0.0195 ± 0.07 | 0.023 ± 0.058
9 | BE3C:CXCL11/I-TAC | -0.052 ± 0.11 | -0.073 ± 0.035 | -0.01 ± 0.0085 | 0 ± 0.016 | 0.021 ± 0.014 | 0.011 ± 0.018 | 0.0275 ± 0.0021 | -0.012 ± 0.011 | -0.005 ± 0.042 | -0.0205 ± 0.025 | -0.0375 ± 0.0092 | -0.033 ± 0.023 | -0.019 ± 0.011 | 0.0185 ± 0.074 | 0.0115 ± 0.026 | -0.0005 ± 0.0021 | 0.002 ± 0.0057 | 0.0175 ± 0.0092 | -0.0105 ± 0.0035 | 0.004 ± 0.017 | 0.0035 ± 0.03
10 | HDF3CGF:CD54/ICAM-1 | -0.001 ± 0.037 | -0.0195 ± 0.0064 | -0.0195 ± 0.0064 | -0.027 ± 0.011 | -0.002 ± 0.011 | -0.0075 ± 0.005 | -0.003 ± 0.023 | -0.0125 ± 0.0021 | -0.008 ± 0.0099 | 0.032 ± 0.045 | 0.033 ± 0.035 | 0.032 ± 0.027 | 0.0555 ± 0.021 | 0.006 ± 0.03 | 0.0015 ± 0.005 | -0.014 ± 0.0099 | -0.0225 ± 0.013 | -0.0255 ± 0.0078 | -0.283 ± 0.0064 | -0.0285 ± 0.047 | 0.0415 ± 0.046
11 | SAg:PBMC Cytotoxicity | -0.0035 ± 0.043 | -0.04 ± 0.041 | 0.019 ± 0.011 | -0.0215 ± 0.00071 | 0.024 ± 0.025 | 0.043 ± 0.089 | 0.0005 ± 0.0092 | 0.0085 ± 0.043 | 0.0245 ± 0.046 | -0.009 ± 0.038 | -0.01 ± 0.0028 | -0.021 ± 0.016 | 0.002 ± 0.03 | 0.04 ± 0.016 | 0.0075 ± 0.012 | -0.025 ± 0.023 | -0.014 ± 0.0014 | -0.024 ± 0.028 | -0.033 ± 0.045 | 0.0015 ± 0.018 | 0.0065 ± 0.005
12 | lMphg:M-CSF | -0.002 ± 0.031 | -0.0065 ± 0.04 | 0.006 ± 0.0085 | -0.0135 ± 0.013 | 0.015 ± 0.0071 | 0.013 ± 0.0099 | -0.041 ± 0.069 | 0.0135 ± 0.0064 | -0.0305 ± 0.015 | -0.0095 ± 0.033 | -0.033 ± 0.0071 | -0.021 ± 0.021 | -0.0325 ± 0.022 | -0.027 ± 0.017 | 0.0005 ± 0.019 | -0.0095 ± 0.0035 | -0.032 ± 0.016 | 0.0085 ± 0.026 | 0.0035 ± 0.03 | 0.0105 ± 0.042 | -0.017 ± 0.051
